According to PMC4307257:
No constants are given. Whether binding was seen depends on the method and setting. Binding seen in cells or lysates may run through a third protein. Here binding means that the protein was enriched with, or labelled near, the bait; the list need not be complete.

By UniProt entry, the sequences of proteins in these tests, tags left out. Residues count along the entry.
UniProt P63039, residues 27-573: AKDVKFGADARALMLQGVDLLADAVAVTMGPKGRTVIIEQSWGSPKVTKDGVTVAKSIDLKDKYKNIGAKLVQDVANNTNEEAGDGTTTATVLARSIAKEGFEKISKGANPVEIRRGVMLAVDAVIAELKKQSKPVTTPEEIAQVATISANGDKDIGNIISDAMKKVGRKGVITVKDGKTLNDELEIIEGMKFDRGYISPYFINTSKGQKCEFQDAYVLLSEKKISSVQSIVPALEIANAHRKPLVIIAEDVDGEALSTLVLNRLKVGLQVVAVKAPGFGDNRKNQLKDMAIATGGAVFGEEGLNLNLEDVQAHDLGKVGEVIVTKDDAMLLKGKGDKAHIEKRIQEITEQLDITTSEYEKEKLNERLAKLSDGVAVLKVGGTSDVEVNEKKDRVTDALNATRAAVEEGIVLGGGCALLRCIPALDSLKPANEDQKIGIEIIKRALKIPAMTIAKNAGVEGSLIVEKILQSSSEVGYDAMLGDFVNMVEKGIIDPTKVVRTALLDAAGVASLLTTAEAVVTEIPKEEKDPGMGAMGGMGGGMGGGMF
UniProt P04764: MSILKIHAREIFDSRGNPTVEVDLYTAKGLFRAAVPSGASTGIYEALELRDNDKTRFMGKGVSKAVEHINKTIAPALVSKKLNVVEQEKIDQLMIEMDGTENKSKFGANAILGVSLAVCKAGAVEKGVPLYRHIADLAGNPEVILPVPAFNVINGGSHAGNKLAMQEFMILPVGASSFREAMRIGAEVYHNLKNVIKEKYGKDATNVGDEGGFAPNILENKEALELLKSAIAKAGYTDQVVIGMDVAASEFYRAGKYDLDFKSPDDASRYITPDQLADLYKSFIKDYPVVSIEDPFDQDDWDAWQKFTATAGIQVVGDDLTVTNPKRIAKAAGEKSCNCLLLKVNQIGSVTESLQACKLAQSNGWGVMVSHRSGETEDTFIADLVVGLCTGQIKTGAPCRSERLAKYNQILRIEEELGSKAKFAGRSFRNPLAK
UniProt P04906: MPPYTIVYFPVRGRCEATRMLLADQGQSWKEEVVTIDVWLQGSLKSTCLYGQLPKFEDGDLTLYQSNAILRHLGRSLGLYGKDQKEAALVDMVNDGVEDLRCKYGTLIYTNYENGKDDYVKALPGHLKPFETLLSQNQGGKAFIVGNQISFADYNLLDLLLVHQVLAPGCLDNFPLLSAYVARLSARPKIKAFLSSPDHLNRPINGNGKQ
UniProt Q6IG03: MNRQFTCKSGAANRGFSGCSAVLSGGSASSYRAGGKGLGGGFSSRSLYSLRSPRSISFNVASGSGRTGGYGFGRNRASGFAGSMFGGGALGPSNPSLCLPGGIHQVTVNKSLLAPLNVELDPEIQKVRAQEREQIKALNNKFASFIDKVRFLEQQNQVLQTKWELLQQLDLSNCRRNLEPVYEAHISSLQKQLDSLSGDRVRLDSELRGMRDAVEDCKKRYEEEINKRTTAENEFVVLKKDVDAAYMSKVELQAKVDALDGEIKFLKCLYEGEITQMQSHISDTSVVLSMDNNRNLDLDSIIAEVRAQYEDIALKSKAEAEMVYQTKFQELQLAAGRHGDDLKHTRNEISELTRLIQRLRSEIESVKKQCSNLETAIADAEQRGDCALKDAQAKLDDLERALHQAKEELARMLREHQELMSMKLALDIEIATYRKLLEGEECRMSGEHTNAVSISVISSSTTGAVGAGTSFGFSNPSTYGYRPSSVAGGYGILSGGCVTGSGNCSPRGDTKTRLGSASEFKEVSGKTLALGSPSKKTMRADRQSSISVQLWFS
UniProt P11980: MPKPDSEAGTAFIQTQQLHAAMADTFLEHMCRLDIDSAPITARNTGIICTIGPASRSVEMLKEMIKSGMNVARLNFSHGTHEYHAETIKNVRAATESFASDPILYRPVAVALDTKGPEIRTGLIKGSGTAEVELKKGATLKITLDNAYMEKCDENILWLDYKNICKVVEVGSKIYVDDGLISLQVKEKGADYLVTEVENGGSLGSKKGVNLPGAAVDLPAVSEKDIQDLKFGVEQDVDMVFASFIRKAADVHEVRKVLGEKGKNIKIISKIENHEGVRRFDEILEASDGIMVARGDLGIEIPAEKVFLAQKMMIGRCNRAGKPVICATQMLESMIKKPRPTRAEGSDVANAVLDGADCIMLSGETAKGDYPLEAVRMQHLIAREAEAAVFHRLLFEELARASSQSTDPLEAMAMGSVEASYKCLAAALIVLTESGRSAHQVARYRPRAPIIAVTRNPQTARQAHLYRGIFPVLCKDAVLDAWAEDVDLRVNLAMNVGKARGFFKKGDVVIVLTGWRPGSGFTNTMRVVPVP
UniProt P48721, residues 47-679: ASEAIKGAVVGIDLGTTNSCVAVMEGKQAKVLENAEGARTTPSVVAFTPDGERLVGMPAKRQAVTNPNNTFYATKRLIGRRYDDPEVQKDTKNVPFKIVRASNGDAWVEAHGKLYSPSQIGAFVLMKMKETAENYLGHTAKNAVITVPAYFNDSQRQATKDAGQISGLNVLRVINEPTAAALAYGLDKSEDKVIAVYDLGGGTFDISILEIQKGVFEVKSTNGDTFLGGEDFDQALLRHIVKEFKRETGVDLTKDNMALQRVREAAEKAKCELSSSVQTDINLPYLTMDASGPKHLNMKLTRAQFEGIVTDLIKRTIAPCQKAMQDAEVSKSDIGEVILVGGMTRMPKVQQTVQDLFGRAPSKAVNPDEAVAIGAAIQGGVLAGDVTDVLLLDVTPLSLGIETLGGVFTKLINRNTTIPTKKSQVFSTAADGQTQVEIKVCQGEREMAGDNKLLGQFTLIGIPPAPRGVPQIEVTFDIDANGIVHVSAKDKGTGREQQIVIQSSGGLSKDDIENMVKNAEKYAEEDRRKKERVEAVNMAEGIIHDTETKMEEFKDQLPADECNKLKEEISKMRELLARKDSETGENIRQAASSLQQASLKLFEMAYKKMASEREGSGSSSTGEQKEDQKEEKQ
UniProt P15999, residues 44-553: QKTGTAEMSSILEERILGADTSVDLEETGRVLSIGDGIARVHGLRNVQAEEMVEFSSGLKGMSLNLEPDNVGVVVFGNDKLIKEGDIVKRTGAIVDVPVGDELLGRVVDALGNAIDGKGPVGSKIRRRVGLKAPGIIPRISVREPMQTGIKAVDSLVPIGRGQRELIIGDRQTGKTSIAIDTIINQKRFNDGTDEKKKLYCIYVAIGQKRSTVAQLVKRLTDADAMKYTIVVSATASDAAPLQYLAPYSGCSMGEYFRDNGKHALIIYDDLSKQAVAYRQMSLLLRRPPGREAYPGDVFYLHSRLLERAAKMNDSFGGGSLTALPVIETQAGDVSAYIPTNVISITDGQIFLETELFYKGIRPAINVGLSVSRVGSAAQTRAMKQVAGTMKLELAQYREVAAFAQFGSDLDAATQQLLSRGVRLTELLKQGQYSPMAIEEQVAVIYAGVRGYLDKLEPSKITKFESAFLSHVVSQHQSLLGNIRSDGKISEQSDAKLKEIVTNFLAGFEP
UniProt P10719, residues 47-529: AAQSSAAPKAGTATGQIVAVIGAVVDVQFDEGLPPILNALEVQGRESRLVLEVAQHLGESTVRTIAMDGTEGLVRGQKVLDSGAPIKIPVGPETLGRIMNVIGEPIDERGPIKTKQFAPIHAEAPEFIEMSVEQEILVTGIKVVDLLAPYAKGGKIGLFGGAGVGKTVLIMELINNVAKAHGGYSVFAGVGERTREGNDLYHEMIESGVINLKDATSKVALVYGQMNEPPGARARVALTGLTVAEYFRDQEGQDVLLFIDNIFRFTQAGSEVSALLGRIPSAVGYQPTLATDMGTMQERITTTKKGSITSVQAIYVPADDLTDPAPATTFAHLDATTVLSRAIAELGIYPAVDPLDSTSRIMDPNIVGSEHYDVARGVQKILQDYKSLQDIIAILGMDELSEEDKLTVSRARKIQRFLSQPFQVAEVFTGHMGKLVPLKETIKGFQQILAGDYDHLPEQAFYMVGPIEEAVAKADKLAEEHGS
UniProt Q66HD0, residues 22-804: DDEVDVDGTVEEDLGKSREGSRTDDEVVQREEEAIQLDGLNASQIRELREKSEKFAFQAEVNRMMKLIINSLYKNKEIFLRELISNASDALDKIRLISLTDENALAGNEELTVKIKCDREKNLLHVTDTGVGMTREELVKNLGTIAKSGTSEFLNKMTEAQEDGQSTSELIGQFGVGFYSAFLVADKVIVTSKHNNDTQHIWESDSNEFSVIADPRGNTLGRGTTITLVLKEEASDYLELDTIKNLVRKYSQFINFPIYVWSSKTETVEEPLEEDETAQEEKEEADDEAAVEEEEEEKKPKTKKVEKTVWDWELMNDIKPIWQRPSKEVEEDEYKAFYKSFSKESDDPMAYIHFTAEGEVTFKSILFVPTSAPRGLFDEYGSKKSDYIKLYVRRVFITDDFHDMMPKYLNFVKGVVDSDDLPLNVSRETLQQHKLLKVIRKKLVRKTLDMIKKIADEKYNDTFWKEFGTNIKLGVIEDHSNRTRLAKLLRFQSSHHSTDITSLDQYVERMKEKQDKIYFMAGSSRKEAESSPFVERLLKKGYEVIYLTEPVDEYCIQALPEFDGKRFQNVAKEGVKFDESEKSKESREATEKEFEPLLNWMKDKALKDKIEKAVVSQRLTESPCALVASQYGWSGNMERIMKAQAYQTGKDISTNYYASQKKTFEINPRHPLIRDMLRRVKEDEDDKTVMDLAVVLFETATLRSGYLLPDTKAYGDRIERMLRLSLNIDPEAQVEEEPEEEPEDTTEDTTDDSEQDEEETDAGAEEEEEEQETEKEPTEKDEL
UniProt P10860, residues 54-558: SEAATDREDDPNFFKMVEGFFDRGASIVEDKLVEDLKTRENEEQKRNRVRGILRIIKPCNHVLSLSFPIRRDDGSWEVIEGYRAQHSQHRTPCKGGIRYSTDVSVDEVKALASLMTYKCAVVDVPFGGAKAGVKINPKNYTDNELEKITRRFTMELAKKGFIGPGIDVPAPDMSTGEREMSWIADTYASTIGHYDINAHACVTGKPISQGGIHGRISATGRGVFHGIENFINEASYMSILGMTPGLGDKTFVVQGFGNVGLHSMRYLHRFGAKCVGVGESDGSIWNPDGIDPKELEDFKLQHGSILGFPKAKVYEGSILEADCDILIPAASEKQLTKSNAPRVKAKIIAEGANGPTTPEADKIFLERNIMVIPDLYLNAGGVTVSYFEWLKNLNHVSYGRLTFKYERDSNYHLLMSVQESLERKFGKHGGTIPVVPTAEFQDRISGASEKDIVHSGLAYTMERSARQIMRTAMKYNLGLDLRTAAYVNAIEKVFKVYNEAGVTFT
UniProt P09606: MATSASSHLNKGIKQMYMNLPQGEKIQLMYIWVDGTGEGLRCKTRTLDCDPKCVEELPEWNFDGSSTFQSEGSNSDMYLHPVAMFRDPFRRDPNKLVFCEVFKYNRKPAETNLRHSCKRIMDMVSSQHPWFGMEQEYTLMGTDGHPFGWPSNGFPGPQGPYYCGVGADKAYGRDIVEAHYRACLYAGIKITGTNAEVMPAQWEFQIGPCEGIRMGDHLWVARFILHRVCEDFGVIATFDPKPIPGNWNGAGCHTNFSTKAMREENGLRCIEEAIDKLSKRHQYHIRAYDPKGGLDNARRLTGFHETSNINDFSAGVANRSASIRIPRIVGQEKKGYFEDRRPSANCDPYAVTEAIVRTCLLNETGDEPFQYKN
UniProt P04785, residues 20-509: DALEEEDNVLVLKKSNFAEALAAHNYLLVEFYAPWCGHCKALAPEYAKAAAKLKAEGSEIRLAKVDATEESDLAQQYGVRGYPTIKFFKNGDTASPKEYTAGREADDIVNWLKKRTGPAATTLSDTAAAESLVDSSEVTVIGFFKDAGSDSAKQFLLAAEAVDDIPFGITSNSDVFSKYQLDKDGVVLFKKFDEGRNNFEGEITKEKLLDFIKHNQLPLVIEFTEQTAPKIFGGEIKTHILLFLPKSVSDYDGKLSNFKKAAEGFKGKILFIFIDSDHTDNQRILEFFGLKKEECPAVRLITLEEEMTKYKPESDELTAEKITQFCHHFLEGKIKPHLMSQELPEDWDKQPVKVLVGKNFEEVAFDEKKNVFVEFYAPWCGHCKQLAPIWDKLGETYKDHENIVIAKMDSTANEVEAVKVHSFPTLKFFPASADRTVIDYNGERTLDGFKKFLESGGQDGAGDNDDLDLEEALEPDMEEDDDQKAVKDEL
UniProt P21707: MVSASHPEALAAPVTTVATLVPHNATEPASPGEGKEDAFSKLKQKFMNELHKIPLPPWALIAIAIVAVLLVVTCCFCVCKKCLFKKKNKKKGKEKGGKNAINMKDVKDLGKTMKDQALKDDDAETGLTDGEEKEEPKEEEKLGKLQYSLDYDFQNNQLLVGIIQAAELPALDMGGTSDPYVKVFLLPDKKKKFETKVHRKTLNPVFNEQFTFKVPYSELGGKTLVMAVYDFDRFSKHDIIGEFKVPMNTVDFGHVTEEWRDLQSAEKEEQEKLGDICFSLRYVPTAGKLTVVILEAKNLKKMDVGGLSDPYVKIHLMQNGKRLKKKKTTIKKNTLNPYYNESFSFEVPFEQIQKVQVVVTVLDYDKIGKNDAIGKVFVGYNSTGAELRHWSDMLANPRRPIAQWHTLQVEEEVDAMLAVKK

Target: human amyloid-β protein fragment (1–42) (human) (UniProt P05067)
Assay: affinity purification with mass spectrometry; amyloid-β 1–42 immobilized on Affi-Gel 10; cleared 3% Triton X-100 lysate of rat brain homogenate (control; also after 70 µM H2O2, 0.1 mM isatin or both, 37 °C, 30 min), overnight at 4 °C, 50 mM potassium phosphate pH 7.4; elution with 1 M glycine pH 2.8, 150 mM NaCl; LC-MS/MS; ligand-free Affi-Gel 10 as control; only the target purified

Substance | binding
60 kDa Heat shock protein, mitochondrial (from UniProt P63039 27-573) | binds
Alpha-enolase (from UniProt P04764 1-434) | binds
Glutathione S-transferase P OS (from UniProt P04906 1-210) | binds
Keratin, type II cytoskeletal 73 (from UniProt Q6IG03 1-553) | binds
Pyruvate kinase isozymes M1/M2 (from UniProt P11980 1-531) | binds
Spectrin α chain, non-erythrocytic 1 (from UniProt P16086 1-2472) | binds
Stress-70 protein, mitochondrial (from UniProt P48721 47-679) | binds

Now from value to substance:

binding | Substance
binds | ATP synthase subunit α, mitochondrial (from UniProt P15999 44-553)
binds | ATP synthase subunit β, mitochondrial (from UniProt P10719 47-529)
binds | Endoplasmin (from UniProt Q66HD0 22-804)
binds | Glutamate dehydrogenase 1, mitochondrial (from UniProt P10860 54-558)
binds | Glutamine synthetase (from UniProt P09606 1-373)
binds | Heat shock cognate 71 kDa protein (from UniProt P63018 1-646)
binds | Heat shock protein HSP 90-α (from UniProt P82995 1-733)
binds | Protein disulfide-isomerase (from UniProt P04785 20-509)
binds | Synaptotagmin-1 (from UniProt P21707 1-421)
